Some entries share one result that the patent states for a list of compounds. For some of these results: At least one compound was matched to its structure with a doubt left.
How the values were obtained:
Format in all cases: in vivo
Venturia inaegualis = experiment: Venturia test (apple)/protective; settings: protective, 100 ppm active compound, evaluation 10 days after inoculation
Experimental: Venturia Test (Apple)/Protective [table] To produce a suitable preparation of active compound, 1 part by weight of active compound is mixed with the stated amounts of solvent and emulsifier, and the concentrate is diluted with water to the desired concentration. To test for protective activity, young plants are sprayed with the active compound preparation at the stated application rate. After the spray coating has dried on, the plants are inoculated with an aqueous conidia suspension of the apple scab pathogen Venturia inaegualis and then remain in an incubation cabin at about […] and 100% relative atmospheric humidity for 1 day. The plants are then placed in the greenhouse at about 21° C. and a relative atmospheric humidity of about 90%.

Plasmopara viticola = experiment: Plasmopara test (grapevine)/protective; settings: protective, 100 ppm active compound, evaluation 6 days after inoculation
Experimental: Plasmopara Test (Grapevine)/Protective [table] To produce a suitable preparation of active compound, 1 part by weight of active compound is mixed with the stated amounts of solvent and emulsifier, and the concentrate is diluted with water to the desired concentration. To test for protective activity, young plants are sprayed with the active compound preparation at the stated application rate. After the spray coating has dried on, the plants are inoculated with an aqueous spore suspension of Plasmopara viticola and then remain in an incubation cabin at about 20° C. and 100% relative atmospheric humidity for 1 day. The plants are then placed in a greenhouse at about 21° C. and about 90% atmospheric humidity for 4 days. The plants are then moistened and placed in an incubation cabin for 1 day.

Pyricularia oryzae = settings: rice, protective, 250 ppm active compound, evaluation 7 days after inoculation
Phytophthora infestans = settings: protective, 100 ppm active compound, evaluation 3 days after inoculation
[1] = tested on: larvae of the mustard beetle (Phaedon cochleariae); experiment: Phaedon test (spray treatment); settings: Chinese cabbage discs, application rate 500 g/ha

| Compound | efficacy (Venturia inaegualis) | efficacy (Plasmopara viticola) | efficacy (Pyricularia oryzae) | efficacy (Phytophthora infestans) | activity (beetle larvae killed) [1] |
| --- | --- | --- | --- | --- | --- |
| O=C1ON=C(c2ccccc2Cl)C1=Cc1cccs1 [I-6] | ≥ 70% | ≥ 70% | ≥ 80% | ≥ 70% | – |
| O=C1ON=C(c2ccccc2F)C1=Cc1cccs1 [I-22] | – | ≥ 70% | – | ≥ 70% | > 80% |
| Cc1ccc(C)c(C2=NOC(=O)C2=Cc2cccs2)c1 [I-98] | – | – | ≥ 80% | – | – |
| O=C1ON=C(c2cccc(Cl)c2Cl)C1=Cc1cccs1 [I-99] | – | – | ≥ 80% | – | – |
| O=C1ON=C(c2ccccc2)C1=Cc1cccs1 [U-1] | – | – | – | ≥ 70% | – |
